{"sequences": {"note": "Sequences of proteins named here, by UniProt entry; tags and fusion partners are left off. A change or cut given only in a name is not applied to a line headed by its entry.", "UniProt P26927": "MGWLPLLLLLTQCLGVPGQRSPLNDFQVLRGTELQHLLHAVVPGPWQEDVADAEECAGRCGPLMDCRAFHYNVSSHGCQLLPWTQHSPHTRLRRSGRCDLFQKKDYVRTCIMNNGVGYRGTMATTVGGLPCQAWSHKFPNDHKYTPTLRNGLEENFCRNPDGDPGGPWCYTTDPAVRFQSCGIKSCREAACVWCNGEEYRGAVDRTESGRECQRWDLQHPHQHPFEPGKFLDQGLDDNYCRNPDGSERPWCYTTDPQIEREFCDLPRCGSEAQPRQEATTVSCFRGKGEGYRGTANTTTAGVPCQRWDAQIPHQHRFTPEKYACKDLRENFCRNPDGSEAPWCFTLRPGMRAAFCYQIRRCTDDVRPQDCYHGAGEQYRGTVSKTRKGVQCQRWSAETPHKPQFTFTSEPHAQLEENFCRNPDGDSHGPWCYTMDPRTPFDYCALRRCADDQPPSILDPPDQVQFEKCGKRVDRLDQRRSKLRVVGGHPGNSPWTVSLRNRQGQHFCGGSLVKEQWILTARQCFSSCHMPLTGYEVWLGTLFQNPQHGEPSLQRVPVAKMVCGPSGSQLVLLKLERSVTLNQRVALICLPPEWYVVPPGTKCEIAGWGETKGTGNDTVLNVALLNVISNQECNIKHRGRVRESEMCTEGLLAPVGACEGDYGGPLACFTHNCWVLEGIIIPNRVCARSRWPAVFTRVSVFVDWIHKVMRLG"}, "source": "paper PMC3884107", "key": {"[1]": {"biological_target": "T1, RON Sema/PSI (human RON residues E25-P568) (human) (UniProt Q04912)", "T1 sequence": "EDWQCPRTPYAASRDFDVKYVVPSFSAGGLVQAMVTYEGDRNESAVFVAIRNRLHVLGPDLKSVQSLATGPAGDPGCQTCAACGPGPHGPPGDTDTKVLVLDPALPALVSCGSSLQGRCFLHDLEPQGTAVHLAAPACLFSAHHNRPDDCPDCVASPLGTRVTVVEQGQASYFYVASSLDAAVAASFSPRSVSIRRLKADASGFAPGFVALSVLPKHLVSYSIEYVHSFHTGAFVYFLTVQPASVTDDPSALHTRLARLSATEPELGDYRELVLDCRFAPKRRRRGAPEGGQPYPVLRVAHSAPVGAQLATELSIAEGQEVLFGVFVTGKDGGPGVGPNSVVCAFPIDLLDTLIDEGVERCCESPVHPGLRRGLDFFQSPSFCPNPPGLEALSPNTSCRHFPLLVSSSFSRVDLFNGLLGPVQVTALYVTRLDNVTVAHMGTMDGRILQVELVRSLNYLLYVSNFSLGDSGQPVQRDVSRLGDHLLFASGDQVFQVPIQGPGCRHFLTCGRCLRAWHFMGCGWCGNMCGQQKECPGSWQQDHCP", "test": "SPR; RON Sema/PSI amine-coupled to a CM5 chip, Biacore 3000; MSP, MSP β or scMSP injected 500-3.9 nM in HBS-P (10 mM HEPES pH 7.5, 150 mM NaCl, 0.005% P20), 25°C, 30 µl/min; global 1:1 Langmuir fit, KD = koff/kon; both purified"}, "[2]": {"biological_target": "T2, RON-Fc (human RON Sema, PSI and IPT1 domains, E25-M682, Fc fusion with human IgG1) (human) (UniProt Q04912)", "T2 sequence": "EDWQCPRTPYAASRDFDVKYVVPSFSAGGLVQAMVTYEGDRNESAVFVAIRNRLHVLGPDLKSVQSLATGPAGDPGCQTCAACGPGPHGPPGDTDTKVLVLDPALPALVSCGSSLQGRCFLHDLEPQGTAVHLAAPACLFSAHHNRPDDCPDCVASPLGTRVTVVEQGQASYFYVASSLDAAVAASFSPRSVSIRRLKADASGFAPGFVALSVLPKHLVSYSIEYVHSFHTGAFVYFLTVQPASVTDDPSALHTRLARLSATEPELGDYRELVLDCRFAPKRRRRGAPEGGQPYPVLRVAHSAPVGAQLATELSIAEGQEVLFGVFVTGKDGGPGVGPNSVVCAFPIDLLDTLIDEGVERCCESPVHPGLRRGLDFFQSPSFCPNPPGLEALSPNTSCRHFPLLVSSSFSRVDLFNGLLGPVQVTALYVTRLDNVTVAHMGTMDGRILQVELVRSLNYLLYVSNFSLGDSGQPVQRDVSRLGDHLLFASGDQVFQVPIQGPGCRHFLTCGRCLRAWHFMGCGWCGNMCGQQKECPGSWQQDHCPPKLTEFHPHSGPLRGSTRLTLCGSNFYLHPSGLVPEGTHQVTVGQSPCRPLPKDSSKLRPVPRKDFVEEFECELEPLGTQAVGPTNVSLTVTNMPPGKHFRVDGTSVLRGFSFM", "test": "SPR; RON-Fc captured (50-100 RU) on immobilised anti-human Fc surfaces, CM5 chip, Biacore 3000; MSP, MSP β or scMSP injected 500-3.9 nM in HBS-P (10 mM HEPES pH 7.5, 150 mM NaCl, 0.005% P20), 25°C, 30 µl/min; global 1:1 Langmuir fit, KD = koff/kon; both purified"}, "[3]": {"biological_target": "T2, RON-Fc (human RON Sema, PSI and IPT1 domains, E25-M682, Fc fusion with human IgG1) (human)", "test": "BLI; RON-Fc (10 µg/ml) loaded on anti-human IgG Fc biosensors, Octet RED384; MSP, MSP β or scMSP 75-4.7 nM, 400 s association, 400 s dissociation, 30°C; global 1:1 fit, KD = koff/kon; both purified"}, "[4]": {"biological_target": "T2, RON-Fc (human RON Sema, PSI and IPT1 domains, E25-M682, Fc fusion with human IgG1) (human)", "test": "ELISA; RON-Fc (1 µg/ml) captured on plate-coated rabbit anti-human IgG Fc; MSP 1000 nM-0.2 pM, 1 h, room temperature; 50 mM HEPES pH 7.2, 150 mM NaCl, 5 mM CaCl2, 1% BSA, 0.1% Tween-20; bound MSP detected with anti-His-HRP; 4-parameter fit; both purified"}}, "note": "These are yes or no findings as the source states them, for the method shown. For some of these results: Binding can be weak; no strength is given. For some of these results: Where a sequence is shown, tags or fusion partners need not be part of it.", "data": [{"substance": "scMSP (noncleavable single-chain pro-MSP; Q19-G711; R483E, C672A) (from UniProt P26927) (ligand)", "values": [{"measurement": "binding", "setting": "[1]", "result": "no binding (tested: 500 nM)"}, {"measurement": "binding", "setting": "[2]", "result": "no binding (tested: 500 nM)"}, {"measurement": "binding", "setting": "[3]", "result": "no binding (tested: 75 nM)"}, {"measurement": "binding", "setting": "[4]", "result": "binds weakly"}]}]}
